Source: PubChem BioAssay AID1259425 (University of Nebraska Medical Center, 2018)

Purpose: 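Seek colon cancer weak points whose silencing resembles KSR1 loss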 (primary screen)
System: HCT116 human colon cancer cells
Reagents: siRNA pool against human genes, 50 nM siRNA
Detection: 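mRNA of six signature genes measured together by branched-DNA assay after 50 nM siRNA pool, blank removed, divided by geometric mean of two housekeeping genes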
Direction: BNIP3L mRNA: higher = more BNIP3L transcript after knockdown
In all, the deposit lists about 14,000 reagents; shown is an unselected part. Reagents against one gene are numbered here. Not all columns of the deposit are shown. Not given: the time to read-out.

{"target": "DAPP1 (dual adaptor of phosphotyrosine and 3-phosphoinositides 1)", "reagent": 1, "BNIP3L mRNA, set 1": 0.118}
{"target": "RAP2B (RAP2B, member of RAS oncogene family)", "reagent": 1, "BNIP3L mRNA, set 1": 0.104}
{"target": "DFFB (DNA fragmentation factor subunit beta)", "reagent": 1, "BNIP3L mRNA, set 1": 0.107}
{"target": "GJA5 (gap junction protein alpha 5)", "reagent": 1, "BNIP3L mRNA, set 1": 0.0533}
{"target": "MGRN1 (mahogunin ring finger 1)", "reagent": 1, "BNIP3L mRNA, set 1": 0.0856}
{"target": "SARS2 (seryl-tRNA synthetase 2, mitochondrial)", "reagent": 1, "BNIP3L mRNA, set 1": 0.0601}
{"target": "CSF2RB (colony stimulating factor 2 receptor subunit beta)", "reagent": 1, "BNIP3L mRNA, set 1": 0.12}
{"target": "TMOD1 (tropomodulin 1)", "reagent": 1, "BNIP3L mRNA, set 1": 0.0593}
{"target": "PDIA5 (protein disulfide isomerase family A member 5)", "reagent": 1, "BNIP3L mRNA, set 1": 0.0872}
{"target": "SERTAD2 (SERTA domain containing 2)", "reagent": 1, "BNIP3L mRNA, set 1": 0.0614}
{"target": "TP53TG5 (TP53 target 5)", "reagent": 1, "BNIP3L mRNA, set 1": 0.0759}
{"target": "LAIR2 (leukocyte associated immunoglobulin like receptor 2)", "reagent": 1, "BNIP3L mRNA, set 1": 0.17}
{"target": "SSR3 (signal sequence receptor subunit 3)", "reagent": 1, "BNIP3L mRNA, set 1": 0.0919}
{"target": "MANEA (mannosidase endo-alpha)", "reagent": 1, "BNIP3L mRNA, set 1": 0.0982}
{"target": "ADCY1 (adenylate cyclase 1)", "reagent": 1, "BNIP3L mRNA, set 1": 0.0884}
{"target": "ISOC2 (isochorismatase domain containing 2)", "reagent": 1, "BNIP3L mRNA, set 1": 0.173}
{"target": "LGALS12 (galectin 12)", "reagent": 1, "BNIP3L mRNA, set 1": 0.0953}
{"target": "SERP1 (stress associated endoplasmic reticulum protein 1)", "reagent": 1, "BNIP3L mRNA, set 1": 0.191}
{"target": "RHBDF2 (rhomboid 5 homolog 2)", "reagent": 1, "BNIP3L mRNA, set 1": 0.166}
{"target": "OLAH (oleoyl-ACP hydrolase)", "reagent": 1, "BNIP3L mRNA, set 1": 0.316}
{"target": "STRADB (STE20 related adaptor beta)", "reagent": 1, "BNIP3L mRNA, set 1": 0.105}
{"target": "PPARA (peroxisome proliferator activated receptor alpha)", "reagent": 1, "BNIP3L mRNA, set 1": 0.0542}
{"target": "PPARA (peroxisome proliferator activated receptor alpha)", "reagent": 2, "BNIP3L mRNA, set 1": 0.136}
{"target": "C12orf43 (chromosome 12 open reading frame 43)", "reagent": 1, "BNIP3L mRNA, set 1": 0.1}
{"target": "GPR173 (G protein-coupled receptor 173)", "reagent": 1, "BNIP3L mRNA, set 1": 0.21}
{"target": "EXTL1 (exostosin like glycosyltransferase 1)", "reagent": 1, "BNIP3L mRNA, set 1": 0.161}
{"target": "HTR2C (5-hydroxytryptamine receptor 2C)", "reagent": 1, "BNIP3L mRNA, set 1": 0.142}
{"target": "COX10", "reagent": 1, "BNIP3L mRNA, set 1": 0.0681}
